Experimental findings from paper doi:10.1101/230706 are described below.

Protein sequences, listed by entry. Tags and fused reporters are not part of them.
UniProt Q14980: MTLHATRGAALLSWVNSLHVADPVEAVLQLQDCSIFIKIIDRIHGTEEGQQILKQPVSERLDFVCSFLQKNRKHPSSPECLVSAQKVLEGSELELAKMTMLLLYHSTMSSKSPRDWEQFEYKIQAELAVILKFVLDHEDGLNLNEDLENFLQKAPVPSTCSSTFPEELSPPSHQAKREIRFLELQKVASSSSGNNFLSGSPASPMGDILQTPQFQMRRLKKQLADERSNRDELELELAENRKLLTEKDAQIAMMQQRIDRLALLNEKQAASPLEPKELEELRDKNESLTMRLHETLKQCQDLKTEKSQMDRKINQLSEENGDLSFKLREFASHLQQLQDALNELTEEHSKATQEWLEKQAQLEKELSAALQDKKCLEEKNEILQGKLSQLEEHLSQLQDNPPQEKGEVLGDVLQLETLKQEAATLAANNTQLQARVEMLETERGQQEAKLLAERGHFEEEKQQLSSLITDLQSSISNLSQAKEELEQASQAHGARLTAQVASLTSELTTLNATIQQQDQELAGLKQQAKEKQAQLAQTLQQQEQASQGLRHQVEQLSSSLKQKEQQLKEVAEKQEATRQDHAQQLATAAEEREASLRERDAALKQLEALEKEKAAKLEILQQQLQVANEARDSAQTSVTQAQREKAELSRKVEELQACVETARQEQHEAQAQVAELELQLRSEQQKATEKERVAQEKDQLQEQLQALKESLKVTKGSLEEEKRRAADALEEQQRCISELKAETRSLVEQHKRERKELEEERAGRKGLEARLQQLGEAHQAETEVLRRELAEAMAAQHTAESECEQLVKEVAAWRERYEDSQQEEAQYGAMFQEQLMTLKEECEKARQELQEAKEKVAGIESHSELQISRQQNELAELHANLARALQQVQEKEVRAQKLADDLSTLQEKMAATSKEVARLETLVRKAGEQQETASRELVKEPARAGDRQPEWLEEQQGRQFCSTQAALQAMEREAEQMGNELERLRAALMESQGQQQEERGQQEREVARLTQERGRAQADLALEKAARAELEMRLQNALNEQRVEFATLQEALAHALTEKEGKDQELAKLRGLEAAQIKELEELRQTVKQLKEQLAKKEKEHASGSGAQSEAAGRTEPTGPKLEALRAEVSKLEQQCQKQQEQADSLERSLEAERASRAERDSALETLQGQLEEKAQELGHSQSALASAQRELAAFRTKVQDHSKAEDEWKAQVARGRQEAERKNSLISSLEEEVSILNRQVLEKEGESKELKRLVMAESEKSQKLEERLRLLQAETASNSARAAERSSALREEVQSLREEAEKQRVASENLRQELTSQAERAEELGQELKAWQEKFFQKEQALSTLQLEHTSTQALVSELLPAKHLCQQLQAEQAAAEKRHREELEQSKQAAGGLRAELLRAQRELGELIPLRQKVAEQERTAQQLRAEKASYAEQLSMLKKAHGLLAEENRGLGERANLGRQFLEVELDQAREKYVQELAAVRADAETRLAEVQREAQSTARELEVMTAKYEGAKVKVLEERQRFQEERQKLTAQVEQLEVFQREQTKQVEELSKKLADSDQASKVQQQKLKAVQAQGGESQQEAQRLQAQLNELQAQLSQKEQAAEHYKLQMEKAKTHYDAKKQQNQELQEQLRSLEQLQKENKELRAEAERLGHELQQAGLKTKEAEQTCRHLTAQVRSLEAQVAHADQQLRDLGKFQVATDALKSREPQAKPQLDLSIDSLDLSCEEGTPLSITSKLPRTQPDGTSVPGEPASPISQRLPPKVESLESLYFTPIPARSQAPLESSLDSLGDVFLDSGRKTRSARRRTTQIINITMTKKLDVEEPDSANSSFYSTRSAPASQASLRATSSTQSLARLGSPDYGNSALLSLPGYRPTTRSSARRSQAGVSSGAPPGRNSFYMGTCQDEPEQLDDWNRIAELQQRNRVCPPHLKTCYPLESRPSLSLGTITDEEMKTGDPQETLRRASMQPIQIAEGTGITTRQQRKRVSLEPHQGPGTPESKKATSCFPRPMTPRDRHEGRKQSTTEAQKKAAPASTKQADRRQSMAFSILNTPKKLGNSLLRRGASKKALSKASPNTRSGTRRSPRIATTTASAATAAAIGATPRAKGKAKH
UniProt Q12888: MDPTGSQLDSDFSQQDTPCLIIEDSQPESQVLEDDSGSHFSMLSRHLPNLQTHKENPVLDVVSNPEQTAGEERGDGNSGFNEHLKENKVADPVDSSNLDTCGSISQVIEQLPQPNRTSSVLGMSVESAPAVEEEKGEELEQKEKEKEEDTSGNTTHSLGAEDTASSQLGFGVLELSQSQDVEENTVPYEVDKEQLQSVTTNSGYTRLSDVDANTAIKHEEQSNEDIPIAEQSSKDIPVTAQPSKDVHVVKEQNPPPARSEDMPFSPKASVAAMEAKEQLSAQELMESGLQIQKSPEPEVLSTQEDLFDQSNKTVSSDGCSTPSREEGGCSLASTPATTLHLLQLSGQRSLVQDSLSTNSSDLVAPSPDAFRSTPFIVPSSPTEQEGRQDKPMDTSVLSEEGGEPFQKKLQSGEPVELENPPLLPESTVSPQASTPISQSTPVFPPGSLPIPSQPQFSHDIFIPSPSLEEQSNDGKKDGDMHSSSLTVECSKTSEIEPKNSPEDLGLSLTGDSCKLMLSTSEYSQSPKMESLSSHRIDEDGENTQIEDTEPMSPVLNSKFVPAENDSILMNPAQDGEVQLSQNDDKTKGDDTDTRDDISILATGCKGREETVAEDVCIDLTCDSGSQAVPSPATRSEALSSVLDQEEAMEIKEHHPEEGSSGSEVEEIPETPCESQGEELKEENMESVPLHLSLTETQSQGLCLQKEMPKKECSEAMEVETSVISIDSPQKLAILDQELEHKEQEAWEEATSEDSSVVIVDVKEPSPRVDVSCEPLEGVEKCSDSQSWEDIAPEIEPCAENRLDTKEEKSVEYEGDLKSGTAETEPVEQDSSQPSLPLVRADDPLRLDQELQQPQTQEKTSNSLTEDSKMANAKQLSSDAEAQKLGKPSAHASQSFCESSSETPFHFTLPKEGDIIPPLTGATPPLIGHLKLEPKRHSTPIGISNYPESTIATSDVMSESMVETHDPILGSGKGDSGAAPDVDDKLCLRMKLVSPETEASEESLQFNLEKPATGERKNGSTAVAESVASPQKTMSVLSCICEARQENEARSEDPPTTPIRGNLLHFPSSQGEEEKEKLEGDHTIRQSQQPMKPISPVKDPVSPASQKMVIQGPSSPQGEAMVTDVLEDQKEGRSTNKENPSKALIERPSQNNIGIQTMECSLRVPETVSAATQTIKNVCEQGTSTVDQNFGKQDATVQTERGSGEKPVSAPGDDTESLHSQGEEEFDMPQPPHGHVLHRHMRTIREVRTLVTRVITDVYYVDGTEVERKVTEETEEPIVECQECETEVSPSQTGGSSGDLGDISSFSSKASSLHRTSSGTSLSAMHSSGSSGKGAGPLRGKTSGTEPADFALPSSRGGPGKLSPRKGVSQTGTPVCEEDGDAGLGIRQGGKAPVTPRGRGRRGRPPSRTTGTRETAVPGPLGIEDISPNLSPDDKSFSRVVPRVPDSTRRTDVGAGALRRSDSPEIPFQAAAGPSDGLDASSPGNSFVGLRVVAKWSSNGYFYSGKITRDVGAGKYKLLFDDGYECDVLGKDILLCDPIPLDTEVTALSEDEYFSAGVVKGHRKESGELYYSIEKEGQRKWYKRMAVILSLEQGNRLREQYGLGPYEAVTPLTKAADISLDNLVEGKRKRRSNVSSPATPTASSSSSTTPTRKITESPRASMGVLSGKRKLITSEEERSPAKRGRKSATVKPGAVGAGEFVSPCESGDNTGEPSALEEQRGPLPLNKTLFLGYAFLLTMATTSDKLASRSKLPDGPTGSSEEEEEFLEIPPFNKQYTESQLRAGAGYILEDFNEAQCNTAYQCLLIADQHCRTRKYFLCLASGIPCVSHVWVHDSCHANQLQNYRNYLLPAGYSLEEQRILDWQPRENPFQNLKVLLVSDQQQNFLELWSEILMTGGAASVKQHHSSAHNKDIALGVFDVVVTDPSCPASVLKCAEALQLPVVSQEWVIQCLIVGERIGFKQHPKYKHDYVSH

These are yes or no findings as the source states them, for the method shown. Binding seen in cells or lysates may run through a third protein. Some binding calls cover weakened binding; strength is not graded here.

For assay [1], the target named is endogenous nuclear mitotic apparatus protein (NuMA) (human (endogenous in U2OS, HMT-3522 S1, T4-2 and MCF7)) (UniProt Q14980). The assay is described as follows: co-IP.
For assay [2] the target is unchanged. Kind of assay: FRET or BRET.
In assay [3] the target is GFP-53BP1 (UniProt Q12888). Kind of assay: FRET or BRET. (In BRET a luciferase serves as donor, and the signal depends on an acceptor being close.)

Take “endogenous 53BP1 (from UniProt Q12888 1-1972)”: the binding result in assay [1] and in assay [2] was “binds” throughout. For the substance “mCherry-NuMA (from UniProt Q14980 1-2115)”, in assay [3], the binding result is reported as “binds”.
